Laboratory results as given in paper PMC12372870.

Biological target: T1, HA-tagged altSFPQ (alternative SFPQ isoform lacking the C-terminal nuclear localization signal) (human) (UniProt P23246)
T1 sequence: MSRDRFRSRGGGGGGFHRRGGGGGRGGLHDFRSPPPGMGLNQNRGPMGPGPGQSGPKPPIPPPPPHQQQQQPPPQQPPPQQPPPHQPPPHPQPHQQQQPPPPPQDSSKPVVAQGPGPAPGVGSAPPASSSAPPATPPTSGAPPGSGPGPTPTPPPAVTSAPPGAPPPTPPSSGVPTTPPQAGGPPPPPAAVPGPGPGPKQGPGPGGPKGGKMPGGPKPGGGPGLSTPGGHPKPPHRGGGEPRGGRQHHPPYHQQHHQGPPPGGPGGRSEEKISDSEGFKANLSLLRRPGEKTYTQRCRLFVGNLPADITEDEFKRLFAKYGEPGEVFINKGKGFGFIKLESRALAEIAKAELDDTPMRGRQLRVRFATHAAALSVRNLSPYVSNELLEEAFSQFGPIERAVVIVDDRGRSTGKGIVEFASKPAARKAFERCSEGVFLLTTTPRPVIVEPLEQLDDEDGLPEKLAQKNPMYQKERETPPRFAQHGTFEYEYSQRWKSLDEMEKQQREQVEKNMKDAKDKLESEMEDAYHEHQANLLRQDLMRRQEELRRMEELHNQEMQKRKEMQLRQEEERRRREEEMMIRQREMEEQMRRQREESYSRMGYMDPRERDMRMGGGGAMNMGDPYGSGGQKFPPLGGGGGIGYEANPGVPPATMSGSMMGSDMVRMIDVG
Test: affinity purification with mass spectrometry; anti-HA magnetic beads on lysates of N2A cells expressing HA-SFPQ variants, four replicates; on-bead trypsin digestion, TMTpro labelling, LC-MS; enrichment over empty vector

binding: binds
B1: endogenous SFPQ (protein, UniProt Q8VIJ6 1-699)
chain: MSRDRFRSRGGGGGGFHRRGGGGGRGGLHDFRSPPPGMGLNQNRGPMGPGPGGPKPPLPPPPPHQQQQQPPPQQPPPQQPPPHQQPPPHQPPHQQPPPPPQESKPVVPQGPGSAPGVSSAPPPAVSAPPANPPTTGAPPGPGPTPTPPPAVPSTAPGPPPPSTPSSGVSTTPPQTGGPPPPPAGGAGPGPKPGPGPGGPKGGKMPGGPKPGGGPGMGAPGGHPKPPHRGGGEPRGGRQHHAPYHQQHHQGPPPGGPGPRTEEKISDSEGFKANLSLLRRPGEKTYTQRCRLFVGNLPADITEDEFKRLFAKYGEPGEVFINKGKGFGFIKLESRALAEIAKAELDDTPMRGRQLRVRFATHAAALSVRNLSPYVSNELLEEAFSQFGPIERAVVIVDDRGRSTGKGIVEFASKPAARKAFERCSEGVFLLTTTPRPVIVEPLEQLDDEDGLPEKLAQKNPMYQKERETPPRFAQHGTFEYEYSQRWKSLDEMEKQQREQVEKNMKDAKDKLESEMEDAYHEHQANLLRQDLMRRQEELRRMEELHSQEMQKRKEMQLRQEEERRRREEEMMIRQREMEEQMRRQREESYSRMGYMDPRERDMRMGGGGTMNMGDPYGSGGQKFPPLGGGGGIGYEANPGVPPATMSGSMMGSDMRTERFGQGGAGPVGGQGPRGMGPGTPAGYGRGREEYEGPNKKPRF

These are yes or no findings as the source states them, for the method shown. In cells and extracts the contact can be indirect. These calls come from enrichment with a bait or labelling near it, and not all partners need be listed. Tags and fused reporters may be left off the sequences shown.
